{
  "source": "paper PMC3765993",
  "about": "“The duration of sleep promoting efficacy by dual orexin receptor antagonists is dependent upon receptor occupancy threshold” (BMC Neuroscience, 2013)",
  "key": {"in vivo": {"assay": "in vivo", "conditions": "rhesus monkey, po, 10 mg/kg"}, "[1]": {"conditions": "rhesus monkeys, 10 mg/kg p.o."}, "rhesus monkeys": {"system": "rhesus monkeys", "set-up": "method as in PMID 23552372", "conditions": "10 mg/kg, active-phase dosing, quantified over 2 h; cited from earlier work"}},
  "note": "“And” between values parts separate entries of the source, which are not always exact repeats. Equal entries are not always repeated.",
  "data": [
    {"smiles": "CN1C(=O)CN=C(c2ccccc2)c2cc(Cl)ccc21", "note": "[Diazepam]", "values": [
      {"measurement": "Cmax", "setting": "in vivo", "result": 0.775, "unit": "µM"},
      {"measurement": "Time of plasma Cmax", "setting": "[1]", "result": "1.0 h and 1 h"},
      {"measurement": "Attenuation of active wake relative to vehicle", "setting": "rhesus monkeys", "result": 38.4, "unit": "min"}
    ]}
  ]
}
